# From US20220213213A1
# By UniProt entry, the sequences of proteins in these tests, tags left out. Where a name states a change or a piece, a line headed by the entry shows the natural chain unless it says otherwise.
# UniProt A9YYE7: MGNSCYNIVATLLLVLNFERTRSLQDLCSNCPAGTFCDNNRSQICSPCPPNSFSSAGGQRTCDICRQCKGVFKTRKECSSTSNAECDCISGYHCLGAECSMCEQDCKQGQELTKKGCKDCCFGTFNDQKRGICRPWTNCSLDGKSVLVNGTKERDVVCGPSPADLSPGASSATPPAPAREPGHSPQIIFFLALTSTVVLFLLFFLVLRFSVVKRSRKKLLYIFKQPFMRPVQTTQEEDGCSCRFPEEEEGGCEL
# UniProt P25942: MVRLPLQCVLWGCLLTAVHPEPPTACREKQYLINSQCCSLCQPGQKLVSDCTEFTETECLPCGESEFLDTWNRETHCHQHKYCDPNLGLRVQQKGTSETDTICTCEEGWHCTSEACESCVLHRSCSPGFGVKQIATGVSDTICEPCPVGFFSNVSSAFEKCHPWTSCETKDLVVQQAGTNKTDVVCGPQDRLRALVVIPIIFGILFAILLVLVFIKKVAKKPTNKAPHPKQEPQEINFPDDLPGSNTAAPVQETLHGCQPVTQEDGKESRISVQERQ
# These are yes or no findings as the source states them, for the method shown. Some results given as binding are weak or reduced against the parent protein; the word gives no strength.
# Biological target: cynomolgus CD137 on CHO cells (extracellular part of cynomolgus CD137 fused to transmembrane and intracellular part of human CD40) (cynomolgus; human) (UniProt A9YYE7+P25942)
# Test: flow cytometry, CHO-cyCD137
binder,measurement,value
"1202/1203 (antibody, V domains shown) VH: EVQLLESGGGLVQPGGSLRLSCAASGFTFYGSSMSWVRQAPGKGLEWVSSIYYGSSGTYYADSVKGRFTISRDNSKNTLYLQMNSLRAEDTAVYYCARSYYGYFDYWGQGTLVTVSS VL: DIQMTQSPSSLSASVGDRVTITCRASQSISSYLNWYQQKPGKAPKLLIYAASSLQSGVPSRFSGSGSGTDFTLTISSLQPEDFATYYCQQYYTVVPFTFGQGTKLEIK",binding,binds
"1618/1619 (antibody, V domains shown) VH: EVQLLESGGGLVQPGGSLRLSCAASGFTFSYGSMYWVRQAPGKGLEWVSSISSGSGSTYYADSVKGRFTISRDNSKNTLYLQMNSLRAEDTAVYYCARSSYYGSYYSIDYWGQGTLVTVSS VL: DIQMTQSPSSLSASVGDRVTITCRASQSISSYLNWYQQKPGKAPKLLIYAASSLQSGVPSRFSGSGSGTDFTLTISSLQPEDFATYYCQQYYDNLPTFGQGTKLEIK",binding,binds
